In the supplement of paper PMC10849652:
The list shows a part of the results.

Protein sequences, listed by entry. Tags and fused reporters are not part of them. Lines headed by an entry give the natural chain unless they say otherwise; changes in a name come on top.
UniProt P69905, whole entry, looked up: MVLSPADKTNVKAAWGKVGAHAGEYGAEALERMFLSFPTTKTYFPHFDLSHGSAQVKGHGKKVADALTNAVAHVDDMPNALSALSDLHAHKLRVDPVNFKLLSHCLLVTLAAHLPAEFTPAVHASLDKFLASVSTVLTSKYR
UniProt Q9UBN7: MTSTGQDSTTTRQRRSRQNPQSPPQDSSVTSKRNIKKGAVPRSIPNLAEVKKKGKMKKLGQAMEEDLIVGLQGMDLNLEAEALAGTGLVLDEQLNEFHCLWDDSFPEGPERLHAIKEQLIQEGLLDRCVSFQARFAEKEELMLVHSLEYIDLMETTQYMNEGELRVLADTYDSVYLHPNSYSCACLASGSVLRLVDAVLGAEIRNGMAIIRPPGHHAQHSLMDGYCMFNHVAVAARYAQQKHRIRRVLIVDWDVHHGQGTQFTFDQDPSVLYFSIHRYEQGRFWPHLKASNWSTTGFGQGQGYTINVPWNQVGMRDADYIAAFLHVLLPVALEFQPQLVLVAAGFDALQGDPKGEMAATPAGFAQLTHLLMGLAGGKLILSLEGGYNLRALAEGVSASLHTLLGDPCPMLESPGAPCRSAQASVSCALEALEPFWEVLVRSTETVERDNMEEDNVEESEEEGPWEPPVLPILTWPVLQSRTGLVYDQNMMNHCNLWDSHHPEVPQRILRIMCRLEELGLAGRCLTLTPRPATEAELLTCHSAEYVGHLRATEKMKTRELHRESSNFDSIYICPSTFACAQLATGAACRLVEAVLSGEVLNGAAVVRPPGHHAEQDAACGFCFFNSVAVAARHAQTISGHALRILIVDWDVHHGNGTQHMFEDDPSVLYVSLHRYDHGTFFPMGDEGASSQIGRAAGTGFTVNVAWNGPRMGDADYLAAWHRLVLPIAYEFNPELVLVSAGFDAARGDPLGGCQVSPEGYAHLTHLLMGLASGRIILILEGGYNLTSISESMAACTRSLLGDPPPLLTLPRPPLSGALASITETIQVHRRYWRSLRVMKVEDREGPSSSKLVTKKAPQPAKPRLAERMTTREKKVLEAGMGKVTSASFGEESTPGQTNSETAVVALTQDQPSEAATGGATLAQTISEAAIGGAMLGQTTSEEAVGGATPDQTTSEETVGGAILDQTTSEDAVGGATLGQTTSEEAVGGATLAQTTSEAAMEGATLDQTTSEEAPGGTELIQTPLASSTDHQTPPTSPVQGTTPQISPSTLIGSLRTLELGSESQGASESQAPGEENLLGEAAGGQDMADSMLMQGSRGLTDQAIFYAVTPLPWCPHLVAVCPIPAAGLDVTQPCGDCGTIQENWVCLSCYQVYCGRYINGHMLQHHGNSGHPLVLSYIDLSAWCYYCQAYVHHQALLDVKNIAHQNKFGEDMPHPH
UniProt Q4G148: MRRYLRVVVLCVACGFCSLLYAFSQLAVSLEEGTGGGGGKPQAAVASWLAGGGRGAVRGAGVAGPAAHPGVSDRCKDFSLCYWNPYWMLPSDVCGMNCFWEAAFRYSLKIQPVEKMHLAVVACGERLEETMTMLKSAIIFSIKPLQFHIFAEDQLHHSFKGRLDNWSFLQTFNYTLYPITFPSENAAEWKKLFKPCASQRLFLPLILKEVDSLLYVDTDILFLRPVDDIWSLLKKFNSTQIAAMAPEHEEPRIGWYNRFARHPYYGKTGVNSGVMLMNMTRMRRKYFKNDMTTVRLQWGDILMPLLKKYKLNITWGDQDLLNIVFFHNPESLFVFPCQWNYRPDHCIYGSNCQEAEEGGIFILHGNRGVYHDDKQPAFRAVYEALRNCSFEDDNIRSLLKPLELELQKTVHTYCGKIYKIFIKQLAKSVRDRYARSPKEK
UniProt Q9P2D3: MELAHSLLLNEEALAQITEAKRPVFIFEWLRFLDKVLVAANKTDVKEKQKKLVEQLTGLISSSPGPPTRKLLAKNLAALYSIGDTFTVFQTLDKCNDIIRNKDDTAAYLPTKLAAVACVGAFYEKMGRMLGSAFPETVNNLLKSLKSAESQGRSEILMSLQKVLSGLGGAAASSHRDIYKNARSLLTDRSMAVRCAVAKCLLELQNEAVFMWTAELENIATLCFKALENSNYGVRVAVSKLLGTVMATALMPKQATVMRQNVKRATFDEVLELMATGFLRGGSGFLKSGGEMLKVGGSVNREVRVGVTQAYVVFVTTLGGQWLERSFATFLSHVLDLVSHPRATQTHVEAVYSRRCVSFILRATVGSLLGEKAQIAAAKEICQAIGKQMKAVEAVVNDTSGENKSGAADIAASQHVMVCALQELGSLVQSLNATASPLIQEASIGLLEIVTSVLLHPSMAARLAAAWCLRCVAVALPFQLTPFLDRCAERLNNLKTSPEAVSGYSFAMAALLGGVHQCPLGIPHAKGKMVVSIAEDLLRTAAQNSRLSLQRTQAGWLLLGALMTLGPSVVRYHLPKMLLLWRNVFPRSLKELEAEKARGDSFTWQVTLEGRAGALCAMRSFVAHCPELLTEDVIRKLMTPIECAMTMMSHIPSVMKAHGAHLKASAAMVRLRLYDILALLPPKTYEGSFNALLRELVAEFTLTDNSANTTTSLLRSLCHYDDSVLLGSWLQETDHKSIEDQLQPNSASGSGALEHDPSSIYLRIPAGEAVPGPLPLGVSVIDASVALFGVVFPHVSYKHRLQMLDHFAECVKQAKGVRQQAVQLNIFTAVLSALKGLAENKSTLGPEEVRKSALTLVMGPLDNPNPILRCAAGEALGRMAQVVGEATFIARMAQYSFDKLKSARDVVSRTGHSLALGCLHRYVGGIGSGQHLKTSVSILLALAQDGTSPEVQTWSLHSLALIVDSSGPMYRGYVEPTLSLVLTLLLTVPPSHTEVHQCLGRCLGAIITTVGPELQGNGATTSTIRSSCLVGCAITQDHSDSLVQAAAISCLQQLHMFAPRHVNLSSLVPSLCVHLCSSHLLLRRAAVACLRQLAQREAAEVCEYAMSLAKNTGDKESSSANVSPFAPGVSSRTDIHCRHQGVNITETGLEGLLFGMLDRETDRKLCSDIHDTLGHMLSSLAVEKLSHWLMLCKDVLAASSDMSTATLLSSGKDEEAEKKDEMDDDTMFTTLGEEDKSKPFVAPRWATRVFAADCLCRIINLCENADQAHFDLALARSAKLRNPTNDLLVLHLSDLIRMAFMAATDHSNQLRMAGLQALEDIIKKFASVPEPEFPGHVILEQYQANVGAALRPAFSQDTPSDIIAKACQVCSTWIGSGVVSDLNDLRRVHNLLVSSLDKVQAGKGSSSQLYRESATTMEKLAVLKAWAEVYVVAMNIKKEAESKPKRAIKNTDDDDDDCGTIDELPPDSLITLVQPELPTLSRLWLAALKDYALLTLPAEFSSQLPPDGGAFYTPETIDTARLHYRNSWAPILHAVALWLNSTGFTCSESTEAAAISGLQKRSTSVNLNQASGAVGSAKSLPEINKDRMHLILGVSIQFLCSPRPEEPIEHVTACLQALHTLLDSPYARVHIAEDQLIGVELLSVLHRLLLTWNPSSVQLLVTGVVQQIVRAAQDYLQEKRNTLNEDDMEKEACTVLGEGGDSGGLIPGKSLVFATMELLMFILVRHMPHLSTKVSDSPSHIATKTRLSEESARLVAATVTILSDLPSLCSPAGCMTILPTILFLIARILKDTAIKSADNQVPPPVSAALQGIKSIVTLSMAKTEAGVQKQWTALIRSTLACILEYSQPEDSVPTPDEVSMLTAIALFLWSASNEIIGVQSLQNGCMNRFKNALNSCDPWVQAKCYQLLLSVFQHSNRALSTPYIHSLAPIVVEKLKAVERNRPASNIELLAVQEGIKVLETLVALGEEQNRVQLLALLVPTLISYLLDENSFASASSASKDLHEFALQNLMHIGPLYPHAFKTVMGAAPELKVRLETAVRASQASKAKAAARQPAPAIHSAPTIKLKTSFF
UniProt P15170, whole entry, looked up: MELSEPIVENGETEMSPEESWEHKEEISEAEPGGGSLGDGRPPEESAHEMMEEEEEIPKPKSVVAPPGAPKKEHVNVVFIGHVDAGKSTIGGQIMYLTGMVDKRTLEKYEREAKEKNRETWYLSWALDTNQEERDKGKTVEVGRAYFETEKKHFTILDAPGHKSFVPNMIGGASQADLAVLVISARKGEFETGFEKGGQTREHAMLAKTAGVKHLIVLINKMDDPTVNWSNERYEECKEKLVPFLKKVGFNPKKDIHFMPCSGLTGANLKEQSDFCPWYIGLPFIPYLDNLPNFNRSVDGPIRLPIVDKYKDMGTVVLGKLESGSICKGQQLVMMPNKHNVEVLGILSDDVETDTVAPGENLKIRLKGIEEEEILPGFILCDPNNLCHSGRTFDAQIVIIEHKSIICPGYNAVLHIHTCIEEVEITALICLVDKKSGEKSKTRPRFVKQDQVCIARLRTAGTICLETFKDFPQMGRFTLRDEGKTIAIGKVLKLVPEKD
UniProt P42694: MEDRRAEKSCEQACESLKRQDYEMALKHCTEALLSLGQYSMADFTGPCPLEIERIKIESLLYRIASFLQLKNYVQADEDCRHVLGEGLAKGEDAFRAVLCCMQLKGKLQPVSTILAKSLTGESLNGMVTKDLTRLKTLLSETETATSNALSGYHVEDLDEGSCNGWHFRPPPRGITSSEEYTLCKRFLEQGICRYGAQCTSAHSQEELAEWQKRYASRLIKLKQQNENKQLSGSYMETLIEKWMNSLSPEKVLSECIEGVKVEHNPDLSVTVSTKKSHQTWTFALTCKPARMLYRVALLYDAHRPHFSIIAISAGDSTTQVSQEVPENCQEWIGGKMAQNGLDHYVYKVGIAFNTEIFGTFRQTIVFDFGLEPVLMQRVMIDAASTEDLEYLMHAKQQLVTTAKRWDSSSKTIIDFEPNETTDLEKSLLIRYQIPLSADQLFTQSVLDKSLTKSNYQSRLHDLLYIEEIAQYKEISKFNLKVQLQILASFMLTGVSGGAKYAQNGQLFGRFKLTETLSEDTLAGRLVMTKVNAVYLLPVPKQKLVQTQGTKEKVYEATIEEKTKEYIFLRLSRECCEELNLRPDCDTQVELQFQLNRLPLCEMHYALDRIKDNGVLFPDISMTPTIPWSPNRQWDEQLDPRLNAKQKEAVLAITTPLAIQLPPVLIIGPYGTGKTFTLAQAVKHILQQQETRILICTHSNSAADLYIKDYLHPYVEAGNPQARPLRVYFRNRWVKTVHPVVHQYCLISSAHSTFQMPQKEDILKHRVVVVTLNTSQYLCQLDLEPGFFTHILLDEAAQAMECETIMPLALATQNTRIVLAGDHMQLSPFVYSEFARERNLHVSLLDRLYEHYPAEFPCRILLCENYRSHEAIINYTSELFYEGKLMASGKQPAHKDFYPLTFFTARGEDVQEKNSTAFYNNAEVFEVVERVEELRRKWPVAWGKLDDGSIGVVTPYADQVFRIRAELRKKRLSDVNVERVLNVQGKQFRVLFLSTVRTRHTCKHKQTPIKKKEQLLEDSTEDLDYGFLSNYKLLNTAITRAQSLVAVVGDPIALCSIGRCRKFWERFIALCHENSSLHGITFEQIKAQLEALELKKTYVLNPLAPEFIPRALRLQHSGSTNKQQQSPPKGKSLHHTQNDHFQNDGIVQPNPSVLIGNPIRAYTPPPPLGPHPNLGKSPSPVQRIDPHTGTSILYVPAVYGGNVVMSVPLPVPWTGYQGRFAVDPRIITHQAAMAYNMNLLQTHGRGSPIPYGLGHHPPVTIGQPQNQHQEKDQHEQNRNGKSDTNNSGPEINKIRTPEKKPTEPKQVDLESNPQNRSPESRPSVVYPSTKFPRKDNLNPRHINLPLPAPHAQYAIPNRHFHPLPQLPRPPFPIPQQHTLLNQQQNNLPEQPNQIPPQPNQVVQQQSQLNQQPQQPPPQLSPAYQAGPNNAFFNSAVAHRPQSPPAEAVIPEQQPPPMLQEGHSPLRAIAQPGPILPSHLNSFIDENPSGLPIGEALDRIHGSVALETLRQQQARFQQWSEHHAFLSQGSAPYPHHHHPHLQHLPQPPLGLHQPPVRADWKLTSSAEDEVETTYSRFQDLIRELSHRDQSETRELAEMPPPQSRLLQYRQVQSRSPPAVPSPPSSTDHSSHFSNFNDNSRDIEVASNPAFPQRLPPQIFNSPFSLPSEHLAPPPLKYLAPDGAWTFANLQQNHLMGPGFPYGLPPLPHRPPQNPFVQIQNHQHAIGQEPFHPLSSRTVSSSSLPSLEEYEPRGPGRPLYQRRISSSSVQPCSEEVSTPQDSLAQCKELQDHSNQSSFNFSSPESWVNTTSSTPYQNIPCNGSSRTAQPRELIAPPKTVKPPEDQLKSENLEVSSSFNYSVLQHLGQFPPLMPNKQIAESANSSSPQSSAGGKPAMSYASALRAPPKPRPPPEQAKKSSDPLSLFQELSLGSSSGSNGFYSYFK
UniProt P16402, whole entry, looked up: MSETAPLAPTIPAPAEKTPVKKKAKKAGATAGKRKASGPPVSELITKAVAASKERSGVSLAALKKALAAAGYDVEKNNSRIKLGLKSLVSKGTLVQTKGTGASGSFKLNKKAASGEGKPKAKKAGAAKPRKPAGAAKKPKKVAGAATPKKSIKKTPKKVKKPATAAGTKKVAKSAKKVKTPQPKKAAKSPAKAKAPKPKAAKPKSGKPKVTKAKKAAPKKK

What follows are targets tested with Cc1nc(Nc2n[nH]c3c2CN(C(=O)N[C@H](CN(C)C)c2ccccc2)C3(C)C)c2sccc2n1 (assay: log2 fold change, soluble protein after heating vs DMSO (PISA); higher = thermal stabilisation; K562 cells, 10 uM, 30 min; active = over 0.2 and 3.5 SD of the protein, either way, in both replicates (recomputed)).
How it was run: (§1)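 Thermal stability values are relative to control samples and come from duplicates. They are expressed as log2 fold changes. For measurement, K562 cells (2×10^6 cells/mL) received 10 μM compound for 30 min, and aliquots were heated for 3 min over 48°C-58°C, pooled, and extracted at 4°C in PBS with 0.5% NP-40. Soluble protein, the supernatant after 21,000xg for 90 min, was quantified by TMTpro 16plex LC-MS/MS with equalised channel sums.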

log2 fold change, inactive:
HERC2 (UniProt O95714) 0.032
HAX1 (UniProt O00165) -0.174
HEBP2 (UniProt Q9Y5Z4) -0.042
GYS1 (UniProt P13807) -0.18
HBA1 (UniProt P69905) 0.017
H1-2 (UniProt P16403) -0.014
GTPBP3 isoform 2 (UniProt Q969Y2) -0.008
GSKIP (UniProt Q9P0R6) 0.257
HAT1 (UniProt O14929) -0.035
GTSF1 (UniProt Q8WW33) 0.003
HADH isoform 2 (UniProt Q16836) -0.017
HDHD2 (UniProt Q9H0R4) -0.04
HDAC6 (UniProt Q9UBN7) -0.026
GSTP1 (UniProt P09211) -0.017
H1FX (UniProt Q92522) 0.079
HCLS1 (UniProt P14317) -0.007
GYPA (UniProt P02724) 0.018
HEXB (UniProt P07686) 0.032
HAUS4 (UniProt Q9H6D7) 0.086
HEBP1 (UniProt Q9NRV9) 0.195
GXYLT1 (UniProt Q4G148) -0.053
HEMGN (UniProt Q9BXL5) 0.05
HBG1 (UniProt P69891) 0.022
HEXIM1 (UniProt O94992) 0.046
HCCS (UniProt P53701) 0.004
GTPBP1 (UniProt O00178) -0.001
GYG1 (UniProt P46976) -0.012
GTF2A2 (UniProt P52657) 0.022
HEATR5B (UniProt Q9P2D3) -0.066
H2AZ1 (UniProt P0C0S5) -0.029
GTF2F1 (UniProt P35269) -0.018
GSK3B isoform 2 (UniProt P49841) 0.094
HDDC3 (UniProt Q8N4P3) -0.011
GSPT1 isoform 3 (UniProt P15170) 0.022
HELZ (UniProt P42694) 0.003
HBZ (UniProt P02008) 0.011
HBS1L isoform 2 (UniProt Q9Y450) 0.173
H1-3 (UniProt P16402) 0.037

These targets were tested with Cc1nc(Nc2ncc(C(=O)Nc3c(C)cccc3Cl)s2)cc(N2CCN(CCO)CC2)n1 [dasatinib] in the same assay as above.
How it was run: as §1

log2 fold change, inactive:
HERC2 (UniProt O95714) 0.014
HAX1 (UniProt O00165) -0.044
HEBP2 (UniProt Q9Y5Z4) -0.011
GYS1 (UniProt P13807) 0.172
HBA1 (UniProt P69905) 0.044
H1-2 (UniProt P16403) 0.136
GTPBP3 isoform 2 (UniProt Q969Y2) -0.018
GSKIP (UniProt Q9P0R6) -0.041
HAT1 (UniProt O14929) -0.044
GTSF1 (UniProt Q8WW33) 0.033
HADH isoform 2 (UniProt Q16836) 0.093
HDHD2 (UniProt Q9H0R4) 0.042
HDAC6 (UniProt Q9UBN7) -0.107
GSTP1 (UniProt P09211) -0.014
H1FX (UniProt Q92522) 0.043
HCLS1 (UniProt P14317) 0.038
GYPA (UniProt P02724) 0.213
HEXB (UniProt P07686) 0.039
HAUS4 (UniProt Q9H6D7) 0.178
HEBP1 (UniProt Q9NRV9) 0.303
GXYLT1 (UniProt Q4G148) 0.15
HEMGN (UniProt Q9BXL5) 0.045
HBG1 (UniProt P69891) 0.046
HEXIM1 (UniProt O94992) 0.015
HCCS (UniProt P53701) 0.018
GTPBP1 (UniProt O00178) -0.04
GYG1 (UniProt P46976) 0.052
GTF2A2 (UniProt P52657) 0.047
HEATR5B (UniProt Q9P2D3) -0.119
H2AZ1 (UniProt P0C0S5) -0.092
GTF2F1 (UniProt P35269) -0.002
GSK3B isoform 2 (UniProt P49841) -0.115
HDDC3 (UniProt Q8N4P3) 0.084
GSPT1 isoform 3 (UniProt P15170) -0.006
HELZ (UniProt P42694) 0.02
HBZ (UniProt P02008) 0.073
HBS1L isoform 2 (UniProt Q9Y450) -0.366
H1-3 (UniProt P16402) 0.147
